The target of test [1] is T1, Flag-TBK1 E232Q mutant (human) (UniProt Q9UHD2).
T1 sequence: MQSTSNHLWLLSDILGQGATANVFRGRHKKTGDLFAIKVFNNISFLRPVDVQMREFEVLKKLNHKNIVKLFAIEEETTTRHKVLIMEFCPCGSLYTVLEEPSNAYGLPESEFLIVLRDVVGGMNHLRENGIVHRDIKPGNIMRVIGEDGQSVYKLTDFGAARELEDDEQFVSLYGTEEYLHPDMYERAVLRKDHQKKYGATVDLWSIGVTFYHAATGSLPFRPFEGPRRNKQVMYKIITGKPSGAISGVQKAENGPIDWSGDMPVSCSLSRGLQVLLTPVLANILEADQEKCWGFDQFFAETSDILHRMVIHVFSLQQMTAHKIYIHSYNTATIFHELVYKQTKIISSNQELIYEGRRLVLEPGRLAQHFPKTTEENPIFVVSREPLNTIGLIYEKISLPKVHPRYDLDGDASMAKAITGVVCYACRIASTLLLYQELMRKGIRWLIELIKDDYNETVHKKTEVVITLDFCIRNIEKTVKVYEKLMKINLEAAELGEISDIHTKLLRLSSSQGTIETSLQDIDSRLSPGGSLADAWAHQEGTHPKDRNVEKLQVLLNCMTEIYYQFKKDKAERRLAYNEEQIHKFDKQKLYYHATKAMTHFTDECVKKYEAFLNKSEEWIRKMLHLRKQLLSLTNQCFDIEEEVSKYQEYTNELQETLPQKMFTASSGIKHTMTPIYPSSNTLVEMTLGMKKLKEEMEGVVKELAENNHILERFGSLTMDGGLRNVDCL
In words: co-IP; Flag-TBK1 (wild-type or mutant) and mCherry-OPTN co-transfected in HEK293T for 48 h; lysis buffer 20 mM Tris-HCl, 150 mM NaCl, 5 mM MgCl2, 1% Triton X-100; lysate mixed with anti-DDDDK antibody-coupled magnetic beads for 30 min; blots with anti-DDDDK-tag and anti-RFP antibodies.

Test [2] concerns the target T2, Flag-TBK1 E696G mutant (human) (UniProt Q9UHD2).
T2 sequence: T1 sequence with Q232E, E696G
The test is described as above.

The target in test [3] is T3, Flag-TBK1 I37T mutant (human) (UniProt Q9UHD2).
T3 sequence: T1 sequence with I37T, Q232E
The test is described as above.

Test [4] concerns the target T4, Flag-TBK1 wild-type (human) (UniProt Q9UHD2).
T4 sequence: T1 sequence with Q232E
The test is described as above.

The target of test [5] is T5, Flag-TBK1 wild-type (human), Q9UHD2.
T5 chain: T1 sequence with Q232E
Kind of test: non-reducing SDS-PAGE; TBK1 dimerization examined by non-reducing SDS-PAGE and immunoblot of lysates of HEK293T cells expressing Flag-TBK1 wild-type or mutants. As to conditions: remark: other sources report otherwise. In general terms: Immunoblotting shows a protein as a band on a membrane.

In test [6] the target is T1, Flag-TBK1 E232Q mutant (human). Described as above.
The target of test [7] is T3, Flag-TBK1 I37T mutant (human). Described as above.
Test [8] deals with T2, Flag-TBK1 E696G mutant (human). The test is described as above.
For test [9], the target named is Flag-TBK1 T77I variant (human) (UniProt Q9UHD2). The test is described as above.

Positions count from the first letter of the chain named. Names may count otherwise. Results are given in words; binding and its absence hold for the method and conditions named. For part of these data: In cells and extracts the contact can be indirect. Some results given as binding are weak or reduced against the parent protein; the word gives no strength. Tags and fused reporters may be left off the sequences shown.

For “mCherry-OPTN wild-type (from UniProt Q96CV9-1 1-577)”, the binding result in test [1], in [2], in test [3] and in test [4] was “binds” each time.

B1: Flag-TBK1 wild-type, Q9UHD2 1-729 (enzyme)
chain: T1 sequence with Q232E
With B1, the binding entry in test [5] is “binds”.

B2: Flag-TBK1 E232Q mutant (enzyme, UniProt Q9UHD2 1-729)
chain: T1 sequence
With B2, the binding result in test [6] is given as “binds”.

B3: Flag-TBK1 I37T mutant (enzyme, UniProt Q9UHD2 1-729)
chain: T1 sequence with I37T, Q232E
In the case of B3, the binding result in test [7] is recorded as “binds”.

B4: Flag-TBK1 E696G mutant (enzyme, UniProt Q9UHD2 1-729)
chain: T1 sequence with Q232E, E696G
Turning to B4, the binding entry in test [8] is “binds”.

B5: Flag-TBK1 T77I variant (enzyme, UniProt Q9UHD2 1-729)
chain: T1 sequence with T77I, Q232E
On to B5, for which the binding entry in test [9] is given as “binds”.

For the origin of these results see PMC11170894.
